Results deposited as PubChem BioAssay AID743121 (NCATS, 2013).

Aim: 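Knock-downs that sensitise breast cancer cells to camptothecin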 (primary screen)
Cell system: MDA-MB-231 cells, a human breast cancer line
Reagents: single siRNA against human genes, 20 nM siRNA (0.8 pmol per well)
Time to read-out: 120 h (drug added 48 h after transfection, read 72 h later)
Conditions: camptothecin 20 nM (about EC30) for 72 h; vehicle 0.1% DMSO in parallel plates
Measurement: 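CellTiter-Glo ATP signal, scaled to control siRNA as percent viability; sensitisation given as log2 of untreated divided by camptothecin-treated viability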
Scale: log2 vehicle/camptothecin viability: higher = stronger sensitisation to camptothecin; viability with camptothecin and viability without drug: higher = more viable cells
Rule for the call: 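Active genes have an RSA gene-level p-value below 0.001, computed from the ratios of their separate siRNAs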
The whole screen tested about 26,000 reagents; below is a random part of them. Over the whole deposit, 167 (0.63%) are marked active. 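Calls are per gene from RSA p-values that are not deposited; an individual active-marked siRNA can sensitise only weakly.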 The numbers tell different reagents against one gene apart. Reagent sequences are not shown.

The opening 2 entries, to show the layout:
| gene knocked down | reagent no. | log2 vehicle/camptothecin viability | viability with camptothecin (% of control) | viability without drug (% of control) | outcome |
| --- | --- | --- | --- | --- | --- |
| HSPG2 (heparan sulfate proteoglycan 2) | 1 | -0.421 | 49 | 36.6 | inactive |
| HSPG2 (heparan sulfate proteoglycan 2) | 2 | 0.115 | 63.6 | 68.8 | inactive |

Results, repeating the preview:
| gene knocked down | reagent no. | log2 vehicle/camptothecin viability | viability with camptothecin (% of control) | viability without drug (% of control) | outcome |
| --- | --- | --- | --- | --- | --- |
| HSPG2 (heparan sulfate proteoglycan 2) | 1 | -0.421 | 49 | 36.6 | inactive |
| HSPG2 (heparan sulfate proteoglycan 2) | 2 | 0.115 | 63.6 | 68.8 | inactive |
| HSPG2 (heparan sulfate proteoglycan 2) | 3 | -0.261 | 68.4 | 57.1 | inactive |
| HSPG2 (heparan sulfate proteoglycan 2) | 4 | -0.169 | 76.7 | 68.2 | inactive |
| PSEN2 (presenilin 2) | 1 | -0.125 | 110 | 101 | inactive |
| PSEN2 (presenilin 2) | 2 | -0.146 | 31.3 | 28.3 | inactive |
| PSEN2 (presenilin 2) | 3 | -0.105 | 49.1 | 45.6 | inactive |
| PSEN2 (presenilin 2) | 4 | -0.363 | 92.3 | 71.7 | inactive |
| FOLR2 (folate receptor beta) | 1 | -0.336 | 76.9 | 60.9 | inactive |
| FOLR2 (folate receptor beta) | 2 | -0.466 | 30.2 | 21.9 | inactive |
| FOLR2 (folate receptor beta) | 3 | 0.956 | 38.5 | 74.7 | inactive |
| FOLR2 (folate receptor beta) | 4 | 0.00694 | 40.7 | 40.9 | inactive |
| CALM3 (calmodulin 3) | 1 | -0.387 | 57.4 | 43.9 | inactive |
| CALM3 (calmodulin 3) | 2 | 0.0471 | 87.8 | 90.7 | inactive |
| CALM3 (calmodulin 3) | 3 | 0.0315 | 91.2 | 93.3 | inactive |
| CALM3 (calmodulin 3) | 4 | 0.0228 | 111 | 113 | inactive |
| TRIM26 (tripartite motif containing 26) | 1 | 0.0306 | 48 | 49 | inactive |
| TRIM26 (tripartite motif containing 26) | 2 | -0.327 | 90.7 | 72.3 | inactive |
| TRIM26 (tripartite motif containing 26) | 3 | 0.465 | 69.3 | 95.7 | inactive |
| FANCE (FA complementation group E) | 1 | -0.204 | 56.7 | 49.2 | inactive |
| FANCE (FA complementation group E) | 2 | -0.167 | 72.4 | 64.5 | inactive |
| FANCE (FA complementation group E) | 3 | -0.251 | 72.9 | 61.2 | inactive |
| FANCE (FA complementation group E) | 4 | -0.339 | 115 | 90.5 | inactive |
| OR8U1 (olfactory receptor family 8 subfamily U member 1) | 1 | -0.225 | 70.4 | 60.2 | inactive |
| OR8U1 (olfactory receptor family 8 subfamily U member 1) | 2 | -0.653 | 97.7 | 62.1 | inactive |
| OR8U1 (olfactory receptor family 8 subfamily U member 1) | 3 | 0.454 | 50 | 68.4 | inactive |
| OR8U1 (olfactory receptor family 8 subfamily U member 1) | 4 | 0.0951 | 45.1 | 48.2 | inactive |
| NPNT (nephronectin) | 1 | -1.39 | 40.3 | 15.3 | inactive |
| NPNT (nephronectin) | 2 | -0.327 | 114 | 91.1 | inactive |
| NPNT (nephronectin) | 3 | -0.175 | 119 | 105 | inactive |
| NPNT (nephronectin) | 4 | -0.00107 | 70.6 | 70.6 | inactive |
| ERBB4 (erb-b2 receptor tyrosine kinase 4) | 1 | 0.537 | 61.6 | 89.3 | inactive |
| ERBB4 (erb-b2 receptor tyrosine kinase 4) | 2 | 0.451 | 19 | 26 | inactive |
| ERBB4 (erb-b2 receptor tyrosine kinase 4) | 3 | -0.343 | 101 | 79.7 | inactive |
| ERBB4 (erb-b2 receptor tyrosine kinase 4) | 4 | -0.281 | 107 | 87.8 | inactive |
| SEL1L (SEL1L adaptor subunit of SYVN1 ubiquitin ligase) | 1 | 0.369 | 13.1 | 16.9 | active |
| SEL1L (SEL1L adaptor subunit of SYVN1 ubiquitin ligase) | 2 | 0.127 | 93.6 | 102 | active |
| SEL1L (SEL1L adaptor subunit of SYVN1 ubiquitin ligase) | 3 | 0.286 | 74.3 | 90.6 | active |
| SEL1L (SEL1L adaptor subunit of SYVN1 ubiquitin ligase) | 4 | 1.55 | 4.75 | 13.9 | active |
| ITGB1 (integrin subunit beta 1) | 1 | -0.098 | 97.3 | 90.9 | inactive |
| ITGB1 (integrin subunit beta 1) | 2 | -0.0607 | 99.5 | 95.4 | inactive |
| ITGB1 (integrin subunit beta 1) | 3 | -0.47 | 92.5 | 66.8 | inactive |
| ITGB1 (integrin subunit beta 1) | 4 | -0.184 | 142 | 125 | inactive |
| POMC (proopiomelanocortin) | 1 | 0.0866 | 58.3 | 61.9 | inactive |
| POMC (proopiomelanocortin) | 2 | -0.212 | 70.8 | 61.1 | inactive |
| POMC (proopiomelanocortin) | 3 | -0.337 | 94.4 | 74.7 | inactive |
| POMC (proopiomelanocortin) | 4 | -0.535 | 69.1 | 47.7 | inactive |
| MMP20 (matrix metallopeptidase 20) | 1 | -0.219 | 88.6 | 76.1 | inactive |
| MMP20 (matrix metallopeptidase 20) | 2 | -0.568 | 82.9 | 55.9 | inactive |
| MMP20 (matrix metallopeptidase 20) | 3 | 0.309 | 64.4 | 79.8 | inactive |
| MMP20 (matrix metallopeptidase 20) | 4 | -0.103 | 84.2 | 78.4 | inactive |
| SLAMF7 (SLAM family member 7) | 1 | -0.278 | 54.6 | 45.1 | inactive |
| SLAMF7 (SLAM family member 7) | 2 | -0.569 | 90.5 | 61 | inactive |
| SLAMF7 (SLAM family member 7) | 3 | 0.153 | 78.2 | 87 | inactive |
| THRB (thyroid hormone receptor beta) | 1 | -0.0548 | 108 | 104 | inactive |
| THRB (thyroid hormone receptor beta) | 2 | -0.168 | 80.8 | 71.9 | inactive |
| THRB (thyroid hormone receptor beta) | 3 | -0.173 | 114 | 101 | inactive |
| THRB (thyroid hormone receptor beta) | 4 | -0.175 | 70.8 | 62.7 | inactive |
| PKN1 (protein kinase N1) | 1 | -0.245 | 99 | 83.5 | inactive |
| PKN1 (protein kinase N1) | 2 | -0.776 | 21.2 | 12.4 | inactive |
| PKN1 (protein kinase N1) | 3 | 0.378 | 19.2 | 24.9 | inactive |
| PKN1 (protein kinase N1) | 4 | -0.185 | 64.5 | 56.7 | inactive |
| MID1 (midline 1) | 1 | 0.000869 | 91.2 | 91.2 | inactive |
| MID1 (midline 1) | 2 | 0.0522 | 72.6 | 75.3 | inactive |
| MID1 (midline 1) | 3 | -0.0853 | 90.3 | 85.2 | inactive |
| MID1 (midline 1) | 4 | -0.0648 | 85.9 | 82.1 | inactive |
| PLCG2 (phospholipase C gamma 2) | 1 | 0.147 | 96.8 | 107 | inactive |
| PLCG2 (phospholipase C gamma 2) | 2 | -0.338 | 110 | 87.3 | inactive |
| PLCG2 (phospholipase C gamma 2) | 3 | -0.0932 | 89.5 | 83.9 | inactive |
| PLCG2 (phospholipase C gamma 2) | 4 | -0.44 | 95.9 | 70.7 | inactive |
